Test results reported in paper doi:10.1101/2023.04.17.537228.
No constants are given. Whether binding was seen depends on the method and setting. In cells and extracts the contact can be indirect. Here binding means that the protein was enriched with, or labelled near, the bait; the list need not be complete.

The chains behind the UniProt entries cited, without tags or fusion partners.
UniProt Q7TQK4: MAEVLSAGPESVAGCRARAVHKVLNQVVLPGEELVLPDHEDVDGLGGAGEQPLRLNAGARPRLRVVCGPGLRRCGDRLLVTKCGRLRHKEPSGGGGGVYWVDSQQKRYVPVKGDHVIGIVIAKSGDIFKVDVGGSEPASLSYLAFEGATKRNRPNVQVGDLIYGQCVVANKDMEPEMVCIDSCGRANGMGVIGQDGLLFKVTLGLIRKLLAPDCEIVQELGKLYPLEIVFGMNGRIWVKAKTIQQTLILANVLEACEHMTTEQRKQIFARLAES
UniProt Q8VBV3: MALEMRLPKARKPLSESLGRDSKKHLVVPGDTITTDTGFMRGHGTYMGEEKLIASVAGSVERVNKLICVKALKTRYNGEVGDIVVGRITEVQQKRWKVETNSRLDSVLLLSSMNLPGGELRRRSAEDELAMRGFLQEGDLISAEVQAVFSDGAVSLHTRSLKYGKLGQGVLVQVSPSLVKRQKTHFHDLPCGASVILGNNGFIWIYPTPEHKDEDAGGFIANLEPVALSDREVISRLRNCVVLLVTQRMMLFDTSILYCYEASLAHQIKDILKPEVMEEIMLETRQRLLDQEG
UniProt Q9CRA8: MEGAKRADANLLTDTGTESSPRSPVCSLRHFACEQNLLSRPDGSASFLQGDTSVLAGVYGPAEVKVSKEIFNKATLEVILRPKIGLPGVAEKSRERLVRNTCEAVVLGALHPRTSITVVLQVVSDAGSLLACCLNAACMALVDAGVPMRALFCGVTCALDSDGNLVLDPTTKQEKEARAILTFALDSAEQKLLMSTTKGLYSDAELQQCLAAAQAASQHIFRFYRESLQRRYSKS
UniProt Q8BTW3: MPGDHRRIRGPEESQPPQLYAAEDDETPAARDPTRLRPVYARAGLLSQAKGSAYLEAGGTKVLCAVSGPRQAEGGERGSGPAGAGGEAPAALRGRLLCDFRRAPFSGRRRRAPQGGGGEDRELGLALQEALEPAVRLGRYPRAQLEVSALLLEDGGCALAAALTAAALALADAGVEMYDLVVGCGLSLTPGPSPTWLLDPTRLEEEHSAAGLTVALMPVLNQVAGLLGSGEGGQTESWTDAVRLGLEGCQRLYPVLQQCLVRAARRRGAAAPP
UniProt Q9D0M0: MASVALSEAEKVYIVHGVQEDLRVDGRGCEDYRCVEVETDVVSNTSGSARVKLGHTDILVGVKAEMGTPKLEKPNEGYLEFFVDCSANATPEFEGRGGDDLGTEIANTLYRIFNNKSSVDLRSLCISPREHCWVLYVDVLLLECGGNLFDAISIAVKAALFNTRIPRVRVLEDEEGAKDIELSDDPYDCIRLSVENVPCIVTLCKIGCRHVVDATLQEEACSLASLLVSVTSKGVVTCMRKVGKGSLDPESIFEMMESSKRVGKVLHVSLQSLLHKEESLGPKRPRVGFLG
UniProt Q9JHI7: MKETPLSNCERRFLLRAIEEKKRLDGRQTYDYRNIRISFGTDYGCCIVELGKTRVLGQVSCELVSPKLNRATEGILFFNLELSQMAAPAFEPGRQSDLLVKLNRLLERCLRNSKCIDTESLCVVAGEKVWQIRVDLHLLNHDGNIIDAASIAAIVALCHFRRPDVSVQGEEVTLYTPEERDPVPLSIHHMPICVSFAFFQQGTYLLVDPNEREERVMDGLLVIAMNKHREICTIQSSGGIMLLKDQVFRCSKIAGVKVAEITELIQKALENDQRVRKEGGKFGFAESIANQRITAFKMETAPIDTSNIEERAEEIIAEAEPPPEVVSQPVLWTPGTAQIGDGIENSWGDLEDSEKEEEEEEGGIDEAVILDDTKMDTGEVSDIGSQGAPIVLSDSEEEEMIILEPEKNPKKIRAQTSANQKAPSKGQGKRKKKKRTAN
UniProt Q80U78: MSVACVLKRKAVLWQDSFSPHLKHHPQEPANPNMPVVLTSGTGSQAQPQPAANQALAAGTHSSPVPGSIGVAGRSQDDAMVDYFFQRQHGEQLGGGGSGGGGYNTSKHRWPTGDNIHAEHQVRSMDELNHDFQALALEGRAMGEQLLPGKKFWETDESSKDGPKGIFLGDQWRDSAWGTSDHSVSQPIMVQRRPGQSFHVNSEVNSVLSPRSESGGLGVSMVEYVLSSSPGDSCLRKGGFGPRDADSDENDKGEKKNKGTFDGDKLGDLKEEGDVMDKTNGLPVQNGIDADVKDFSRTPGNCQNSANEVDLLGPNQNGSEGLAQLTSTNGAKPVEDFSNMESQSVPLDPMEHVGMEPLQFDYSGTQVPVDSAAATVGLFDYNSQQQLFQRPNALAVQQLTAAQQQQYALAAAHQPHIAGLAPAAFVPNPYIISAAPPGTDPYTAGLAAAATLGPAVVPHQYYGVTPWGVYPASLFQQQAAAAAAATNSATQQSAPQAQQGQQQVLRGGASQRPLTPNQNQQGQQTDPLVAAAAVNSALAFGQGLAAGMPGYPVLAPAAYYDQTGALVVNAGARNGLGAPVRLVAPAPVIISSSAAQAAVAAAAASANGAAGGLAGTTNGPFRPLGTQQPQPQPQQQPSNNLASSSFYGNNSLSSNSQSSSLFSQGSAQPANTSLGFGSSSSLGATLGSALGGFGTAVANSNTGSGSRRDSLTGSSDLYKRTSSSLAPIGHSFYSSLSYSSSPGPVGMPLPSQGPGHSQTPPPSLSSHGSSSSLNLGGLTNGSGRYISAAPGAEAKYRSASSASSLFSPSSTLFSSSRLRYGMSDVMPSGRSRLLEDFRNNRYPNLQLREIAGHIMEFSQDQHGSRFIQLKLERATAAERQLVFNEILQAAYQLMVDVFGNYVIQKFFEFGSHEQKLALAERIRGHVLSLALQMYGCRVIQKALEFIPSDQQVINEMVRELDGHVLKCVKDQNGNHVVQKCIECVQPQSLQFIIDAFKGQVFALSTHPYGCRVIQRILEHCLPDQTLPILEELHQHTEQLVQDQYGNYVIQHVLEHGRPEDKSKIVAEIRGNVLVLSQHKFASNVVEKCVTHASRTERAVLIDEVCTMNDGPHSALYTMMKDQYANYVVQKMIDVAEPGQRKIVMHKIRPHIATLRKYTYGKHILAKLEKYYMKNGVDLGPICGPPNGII
UniProt Q80U58: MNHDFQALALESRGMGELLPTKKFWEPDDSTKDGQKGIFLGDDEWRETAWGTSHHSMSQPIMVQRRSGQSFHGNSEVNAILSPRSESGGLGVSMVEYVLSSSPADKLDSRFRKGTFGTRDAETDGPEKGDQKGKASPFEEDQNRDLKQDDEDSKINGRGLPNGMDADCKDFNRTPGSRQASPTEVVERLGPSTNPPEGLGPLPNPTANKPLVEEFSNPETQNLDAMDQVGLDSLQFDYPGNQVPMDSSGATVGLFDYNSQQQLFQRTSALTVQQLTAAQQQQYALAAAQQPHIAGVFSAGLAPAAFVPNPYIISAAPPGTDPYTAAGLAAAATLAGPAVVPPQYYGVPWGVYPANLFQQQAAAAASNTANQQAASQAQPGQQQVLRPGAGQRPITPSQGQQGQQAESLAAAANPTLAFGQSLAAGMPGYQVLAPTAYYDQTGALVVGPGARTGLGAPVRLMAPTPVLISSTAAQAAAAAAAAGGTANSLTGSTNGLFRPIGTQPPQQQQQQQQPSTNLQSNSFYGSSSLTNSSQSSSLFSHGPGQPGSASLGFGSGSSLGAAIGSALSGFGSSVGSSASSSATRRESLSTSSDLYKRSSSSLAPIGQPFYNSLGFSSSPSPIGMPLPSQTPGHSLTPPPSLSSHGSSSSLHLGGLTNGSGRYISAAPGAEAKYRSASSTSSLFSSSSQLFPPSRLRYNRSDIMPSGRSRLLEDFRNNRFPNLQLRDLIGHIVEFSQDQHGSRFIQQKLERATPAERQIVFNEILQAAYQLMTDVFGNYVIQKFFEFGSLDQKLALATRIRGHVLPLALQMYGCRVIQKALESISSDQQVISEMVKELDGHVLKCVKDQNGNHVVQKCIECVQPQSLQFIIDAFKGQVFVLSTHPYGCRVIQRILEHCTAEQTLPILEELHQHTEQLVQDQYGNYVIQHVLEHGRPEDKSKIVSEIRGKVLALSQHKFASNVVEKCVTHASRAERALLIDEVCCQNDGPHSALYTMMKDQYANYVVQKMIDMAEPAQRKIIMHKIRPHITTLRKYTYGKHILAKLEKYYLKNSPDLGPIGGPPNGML

Each substance was assayed against myc-EXOSC3 (UniProt Q7TQK4) (assay: affinity purification with mass spectrometry).

Row | Substance | binding
1 | EXOSC2 (from UniProt Q8VBV3 1-293) | binds
2 | EXOSC5 (from UniProt Q9CRA8 1-235) | binds
3 | EXOSC6 (from UniProt Q8BTW3 1-273) | binds
4 | EXOSC7 (from UniProt Q9D0M0 1-291) | binds
5 | EXOSC9 (from UniProt Q9JHI7 1-438) | binds
6 | PUM1 (from UniProt Q80U78 1-1189) | binds
7 | PUM2 (from UniProt Q80U58 1-1066) | binds
